Data reported in PMC10925144.
These are yes or no findings as the source states them, for the method shown. A result given as binding can be weak or reduced; the word gives no strength.

Key:
SPO-11 (C. elegans) = target: T1, SPO-11 (C. elegans) (UniProt Q22236); test: two-hybrid; Gal4 activating domain (pGAD-C1) and binding domain (pGBD-C1) fusions co-transformed into yeast PJ69-4a; spotted on SC-LEU-TRP-HIS (interaction) and SC-LEU-TRP-ADE (more stringent, strong interactions); 30°C, 72 h
T1 sequence: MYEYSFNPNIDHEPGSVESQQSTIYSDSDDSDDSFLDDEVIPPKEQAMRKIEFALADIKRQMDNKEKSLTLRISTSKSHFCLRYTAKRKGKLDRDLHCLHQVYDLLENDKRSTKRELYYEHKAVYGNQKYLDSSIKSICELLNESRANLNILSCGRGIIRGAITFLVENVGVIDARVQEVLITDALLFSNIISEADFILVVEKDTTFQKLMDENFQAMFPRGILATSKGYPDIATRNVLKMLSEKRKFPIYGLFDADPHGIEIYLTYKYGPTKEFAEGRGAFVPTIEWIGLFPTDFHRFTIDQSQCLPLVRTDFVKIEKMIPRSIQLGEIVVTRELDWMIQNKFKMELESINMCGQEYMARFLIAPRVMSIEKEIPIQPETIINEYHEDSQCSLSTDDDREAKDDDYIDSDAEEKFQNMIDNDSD

XND-1 (C. elegans) = XND-1 (C. elegans) (UniProt O45134); test: as above

Substance	binding (SPO-11 (C. elegans))	binding (XND-1 (C. elegans))
DSB-1 (C. elegans)	binds	
DSB-1(1–114) (C. elegans) (domain or fragment)	binds	
DSB-1(1–145) (C. elegans) (domain or fragment)	binds	
HIM-17 (from UniProt Q22360)		binds
